System: recombinant Lactobacillus reuteri oxidoreductase
Test: ee determination for selected substrates by GC
Settings: 24 h, 1 to 2 units of oxidoreductase

For `CCOC(=O)CC(=O)CCl` [Ethyl 4-chloro-acetoacetate], the “Stereoselectivity (percent)” value was 56%.

For `COC(=O)CC(C)=O` [Methyl acetoacetate], the “Stereoselectivity (percent)” value was 78%.
